Taken from: PubChem BioAssay AID1259254 (NCATS, 2017)
Here is a random part of about 59,000 deposited reagents. About 1,550 of all reagents (2.6%) count as active. 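G2 share is only a proxy for re-replication; each gene was hit by three separate siRNAs, and active genes were retested.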 Raw values vary from plate to plate and are shown uncorrected. The numbers tell different reagents against one gene apart. Not given: the amount of reagent.

Screen: 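Genome-wide screen for genes that prevent DNA re-replication in cancer cells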 (primary screen)
System: human HCT116 colorectal cancer cells
Reagent: single siRNA against human genes
Timing: 3 days
Measurement: 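Nuclei stained with Hoechst and imaged; cell-cycle phase assigned by DNA content; G2 share scaled per plate, non-targeting siRNA 0%, GMNN siRNA 100%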
Direction: G2 robust z-score and G2 cells, % of GMNN control: higher = more G2 cells, more excess DNA replication; raw share of cells in G2: higher = larger share of cells with G2 DNA content
Hit rule: 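Active siRNAs have a G2 robust z of 5 or more median absolute deviations over the median, which in these data means about 38% or higher of GMNN control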

no.	gene	reagent no.	G2 robust z-score	G2 cells, % of GMNN control	raw share of cells in G2 (%)	Outcome
1	ARID5B	1	1.24	11.7	6.93	inactive
2	ARID5B	2	-0.0776	2.42	7	inactive
3	ARID5B	3	0.0632	3.41	4.7	inactive
4	VCP	1	0.174	4.19	5.82	inactive
5	VCP	2	0.423	5.95	6.43	inactive
6	VCP	3	3.58	28.2	17.5	inactive
7	G6PC3	1	1.63	14.4	9.48	inactive
8	G6PC3	2	2.77	22.5	11.1	inactive
9	G6PC3	3	0.126	3.85	4.66	inactive
10	SLC38A6	1	1.01	10.1	7.22	inactive
11	SLC38A6	2	-0.073	2.45	3.67	inactive
12	SLC38A6	3	-0.126	2.08	3.79	inactive
13	SRRM4	1	1.46	13.3	8.52	inactive
14	SRRM4	2	1.28	12	7.01	inactive
15	SRRM4	3	-0.626	-1.44	1.97	inactive
16	RPS26P28	1	4.12	32	12.5	inactive
17	RPS26P28	2	-0.759	-2.37	2.74	inactive
18	RPS26P28	3	1.74	15.2	8.74	inactive
19	UNC13C	1	-0.862	-3.1	4.56	inactive
20	UNC13C	2	0.352	5.44	7.08	inactive
21	UNC13C	3	0.676	7.72	7.1	inactive
22	KCP	1	-0.819	-2.79	2.81	inactive
23	KCP	2	2.51	20.6	12.4	inactive
24	KCP	3	1.26	11.8	9.71	inactive
25	GPBP1L1	1	-0.512	-0.634	4.3	inactive
26	GPBP1L1	2	0.77	8.39	8.37	inactive
27	GPBP1L1	3	0.528	6.68	4.46	inactive
28	ARHGEF18	1	-0.86	-3.08	5.13	inactive
29	ARHGEF18	2	-0.853	-3.03	3.14	inactive
30	ARHGEF18	3	2.61	21.3	11.2	inactive
31	CITED2	1	-0.721	-2.1	2.83	inactive
32	CITED2	2	-1.21	-5.57	3.51	inactive
33	CITED2	3	-0.818	-2.79	2.17	inactive
34	HAND2	1	0.196	4.34	6.85	inactive
35	HAND2	2	1.59	14.1	8.02	inactive
36	HAND2	3	1.09	10.6	9.06	inactive
37	TOM1L1	1	-0.158	1.86	3.83	inactive
38	TOM1L1	2	0.514	6.59	7.69	inactive
39	TOM1L1	3	-0.157	1.86	5.51	inactive
40	KRTAP5-5	1	4.14	32.1	16	inactive
41	KRTAP5-5	2	-1.69	-8.92	2.05	inactive
42	KRTAP5-5	3	0.175	4.2	6.6	inactive

Laid out differently: results already given.
gene,reagent no.,G2 robust z-score,"G2 cells, % of GMNN control",raw share of cells in G2 (%),Outcome
TOM1L1,2,0.514,6.59,7.69,inactive
TOM1L1,3,-0.157,1.86,5.51,inactive
KRTAP5-5,1,4.14,32.1,16,inactive
KRTAP5-5,2,-1.69,-8.92,2.05,inactive

Further entries follow.
no.	gene	reagent no.	G2 robust z-score	G2 cells, % of GMNN control	raw share of cells in G2 (%)	Outcome
43	NBN	1	1.32	12.3	10.2	inactive
44	NBN	2	-0.11	2.19	5.09	inactive
45	NBN	3	-0.788	-2.58	2.42	inactive
46	EHHADH	1	-0.703	-1.98	4.52	inactive
47	EHHADH	2	-0.292	0.915	5.61	inactive
48	EHHADH	3	-0.712	-2.04	2.93	inactive
49	EFHD1	1	0.381	5.65	4.79	inactive
50	EFHD1	2	-1.2	-5.45	3.44	inactive
51	EFHD1	3	1.94	16.6	8.84	inactive
52	CPNE3	1	-1.71	-9.07	1.46	inactive
53	CPNE3	2	-0.91	-3.44	4.06	inactive
54	CPNE3	3	-0.554	-0.933	4.11	inactive
55	KYNUP2	1	1.73	15.1	8.2	inactive
56	KYNUP2	2	-0.194	1.6	3.73	inactive
57	KYNUP2	3	0.012	3.05	5.1	inactive
58	KATNAL2	1	0.601	7.2	8.43	inactive
59	KATNAL2	2	-0.559	-0.963	3.85	inactive
60	KATNAL2	3	4.17	32.3	16.7	inactive
61	CENPI	1	0.349	5.42	7.85	inactive
62	CENPI	2	1.29	12.1	8.51	inactive
63	CENPI	3	1.06	10.4	7.6	inactive
64	CCDC140	1	-0.31	0.783	4.09	inactive
65	CCDC140	2	-0.173	1.75	3.45	inactive
66	CCDC140	3	-0.659	-1.67	2.49	inactive
67	RRS1	1	2.82	22.8	13.9	inactive
68	RRS1	2	1.97	16.8	11.1	inactive
69	RRS1	3	-0.0582	2.56	4.13	inactive
70	ZNF839	1	-0.891	-3.3	3.25	inactive
71	ZNF839	2	-0.806	-2.7	3.02	inactive
72	ZNF839	3	-1.28	-6.04	1.21	inactive
73	GALNT7	1	-0.142	1.97	4.56	inactive
74	GALNT7	2	-0.7	-1.96	5.06	inactive
75	GALNT7	3	-0.403	0.13	4.29	inactive
76	ANAPC10	1	3.23	25.7	16.6	inactive
77	ANAPC10	2	-0.303	0.834	6.06	inactive
78	ANAPC10	3	-0.494	-0.508	3.68	inactive
79	TPRG1	1	0.0283	3.17	4.8	inactive
80	TPRG1	2	-0.615	-1.36	2.52	inactive
81	TPRG1	3	2.37	19.6	9.23	inactive
82	RAB18	1	0.585	7.09	9.21	inactive
83	RAB18	2	0.926	9.48	7.33	inactive
84	RAB18	3	0.153	4.04	5.25	inactive
85	VSIG10	1	-0.515	-0.659	3.37	inactive
86	VSIG10	2	0.788	8.51	7.86	inactive
87	VSIG10	3	0.102	3.68	4.41	inactive
